54 sequences from paper PMC7819943, “Rice protein-binding microarrays: a tool to detect cis-acting elements near promoter regions in rice” can be followed below.

This is one part of the list.

This experiment concerns the target T1, OsSMF1 (Oryza sativa, UniProt Q6ZLB0 1-436).
T1 sequence: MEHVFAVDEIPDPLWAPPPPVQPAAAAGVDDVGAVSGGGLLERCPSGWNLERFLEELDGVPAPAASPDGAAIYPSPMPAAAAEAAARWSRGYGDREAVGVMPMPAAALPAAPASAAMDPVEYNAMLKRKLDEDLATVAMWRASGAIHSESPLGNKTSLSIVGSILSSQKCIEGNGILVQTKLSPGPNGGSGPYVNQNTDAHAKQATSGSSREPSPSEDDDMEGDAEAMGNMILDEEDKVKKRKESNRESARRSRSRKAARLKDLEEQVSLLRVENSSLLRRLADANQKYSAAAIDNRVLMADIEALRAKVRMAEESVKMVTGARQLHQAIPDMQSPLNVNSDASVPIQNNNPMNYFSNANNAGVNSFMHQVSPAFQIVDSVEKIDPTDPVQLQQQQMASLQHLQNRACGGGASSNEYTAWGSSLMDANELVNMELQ
Description: protein-binding microarray (RPBM); PBS, 2% BSA, 51.3 ng/ul salmon testes DNA, 50 uM zinc acetate, 200 nM TF, 25 C, 1 h; high values mean tight binding. Particulars: protein: recombinant; tags: N-terminal polyhistidine and DsRed monomer fusion (pET32a); chain copies: 2; label: CyDye5-dUTP incorporated in the synthesized complementary strand; 3' TTTTT single-stranded linker to array surface; dsDNA, one strand shown. In outline: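 In PBS with 2% BSA, salmon testes DNA and 50 µM zinc acetate, 200 nM protein was incubated on a custom Agilent array at 25 °C for 1 h and then washed off. The array had been made double-stranded by primer extension with Cy5-dUTP and blocked with 2% BSA. The proteins were transcription factors fused N-terminally to polyhistidine and DsRed, expressed in E. coli BL21-CodonPlus and purified on Ni–NTA. The binding signal is per-feature fluorescence intensity (arbitrary units) from an Axon 4000B scanner.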
With “CTCACATATCTGGTGGGCTGGATCCACAGTAAGAAACAGTCGGAGTCACCTAGTGCAG”, the binding signal was 32500 fluorescence intensity (a.u.). As for “GAAAATAGATGATTTTCGTTAGCGGTCCCACATCCGCATGCGGAGTCACCTAGTGCAG”, the binding signal was 3990 fluorescence intensity (a.u.). As for “TTTCTAGTATTTTGGAATGTCATCCGTGTTTGAGTCGGATCGGAGTCACCTAGTGCAG”, the figure is 3250 fluorescence intensity (a.u.); as for “ATCTCATCACAACCGCGCGAGCGAGCAGTCACCTGCAGCGCGGAGTCACCTAGTGCAG”, 3340 fluorescence intensity (a.u.); as for “GTGCTACAACGTACGCCACGACTTTGCGTACGTCGTGCCACGGAGTCACCTAGTGCAG”, 4460 fluorescence intensity (a.u.). On to “AGCCGGAGAGGGGAGATGTTGGCGGCGCACGGGGCAGTTTCGGAGTCACCTAGTGCAG”, for which the binding signal is 3570 fluorescence intensity (a.u.).

For the sequence “CACCGCCACCTCCGCCTCCACTACCGCCACCGCCACCGCCCGGAGTCACCTAGTGCAG”, the binding signal is 3990 fluorescence intensity (a.u.).

As to “GGGCTGCCAATTTGCCAAATCATATTCTCACGCCCTACCTCGGAGTCACCTAGTGCAG”, the binding signal is 3590 fluorescence intensity (a.u.). As for “TTAAGTTCTTTTCATCGACTCATTTCGTGCTTTTGTATTTCGGAGTCACCTAGTGCAG”, the binding signal was 28900 fluorescence intensity (a.u.). Regarding “AGTACACGATCCTACGAAATCTTAGATGGTATCCCGATTCCGGAGTCACCTAGTGCAG”, the binding signal is 3990 fluorescence intensity (a.u.). In the case of “ATTATACTCCGGTTTTGGCTGACGTGGCAACTATGTGGCTCGGAGTCACCTAGTGCAG”, the binding signal is 14200 fluorescence intensity (a.u.). As for “TTGTAGAAGTTGAATTTGGTTTTACATATTTGTGGAGTGACGGAGTCACCTAGTGCAG”, the figure is 61600 fluorescence intensity (a.u.); as for “TCTCCATCGCCATCCACCGCCGTCACCATCACAATAGAGACGGAGTCACCTAGTGCAG”, 4160 fluorescence intensity (a.u.); as for “TATTCCTCCAGGCTTCCAGCGTGACCTCGAGTCATCAGTTCGGAGTCACCTAGTGCAG”, 4580 fluorescence intensity (a.u.).

As to “TATATATAATTCATCACTGATGACAGCTATTCACAATCTTCGGAGTCACCTAGTGCAG”, the binding signal is 3320 fluorescence intensity (a.u.). As for “GTTGGTGTCATAACGTATCTATCGGTGTCATAGTATGCTACGGAGTCACCTAGTGCAG”, the figure is 3560 fluorescence intensity (a.u.); as for “CACACTGAGTCAGCTGCCACGTCGGATAAAACCGGAGTCACGGAGTCACCTAGTGCAG”, 10500 fluorescence intensity (a.u.). Take “GGGATAATTCCCGGAGGAAGTTATTTTATCTAATATTAATCGGAGTCACCTAGTGCAG”: the binding signal is 30800 fluorescence intensity (a.u.). In the case of “TGGGTGGACGCATACGTCACAGTCTAGTCAGCCAAAACAACGGAGTCACCTAGTGCAG”, the binding signal was 8410 fluorescence intensity (a.u.).

In the case of “CAGGTGCGACACGTCGTTCAGGTGGCTGTCGTCCGCCGTGCGGAGTCACCTAGTGCAG”, the binding signal is 8400 fluorescence intensity (a.u.). For the sequence “GCGCGTTGCTGCTGACTCCGGAGCAAAATCGAGCGAGCGCCGGAGTCACCTAGTGCAG”, the binding signal was 3360 fluorescence intensity (a.u.). In the case of “TTCAGTCTTGTCGTCTGAGTTGCCCTGCCATGTGGGCGTCCGGAGTCACCTAGTGCAG”, the binding signal is 3260 fluorescence intensity (a.u.).

Regarding “CTCGCTGTCCCCGCACGCTACCGCCCGAAGGGGAAGAAGGCGGAGTCACCTAGTGCAG”, the binding signal was 3320 fluorescence intensity (a.u.). For “TTGCTAAGCTAGCACTAAAATCCAGCGTCCACGTCGAGATCGGAGTCACCTAGTGCAG”, the binding signal is 6050 fluorescence intensity (a.u.).

Regarding “ATCCATAACTATGTAACGTCATAGCCACCCAGCCTCGCTTCGGAGTCACCTAGTGCAG”, the binding signal is 5580 fluorescence intensity (a.u.).

In the case of “CCGGTCGCTTTCTTCGTCACGTTACCGCGGGAATCATCGTCGGAGTCACCTAGTGCAG”, the binding signal was 5310 fluorescence intensity (a.u.).

Consider “CGGATCAGCCGGCGCTTGCGCGTGCGTGCGCATGATATGTCGGAGTCACCTAGTGCAG”, for which the binding signal is 3440 fluorescence intensity (a.u.). Turning to “GAAATGGAGGGAAATGGAGTACTATAGTACATTGCAACGACGGAGTCACCTAGTGCAG”, the binding signal was 3610 fluorescence intensity (a.u.). Take “GGAGAGCTGACTTGGCGGGGAGGGCGTGTGTTTCGCGTGGCGGAGTCACCTAGTGCAG”: the binding signal is 6860 fluorescence intensity (a.u.). Turning to “ATCGCCACGTCCACGCCTCGCTCGCGTTTTATCCGTTTCGCGGAGTCACCTAGTGCAG”, the binding signal is 10200 fluorescence intensity (a.u.).

Regarding “TTTTAGCCTAATTACGTCATGATTAGCCATAAATGCTACACGGAGTCACCTAGTGCAG”, the binding signal was 7590 fluorescence intensity (a.u.). Take “GTATTGCTGCTGTGATGGAACAAGCTCAGCAGGGTGACATCGGAGTCACCTAGTGCAG”: the binding signal is 3290 fluorescence intensity (a.u.). Consider “TTAAATGTACCTAATATATTATGTCAGACATATGGATTTCCGGAGTCACCTAGTGCAG”, for which the binding signal was 3460 fluorescence intensity (a.u.). For the sequence “CCACTGCCTAGTCGTCACATGTGGCCGAACCAGCCTTCGTCGGAGTCACCTAGTGCAG”, the binding signal is 5370 fluorescence intensity (a.u.). Turning to “CGGGCGGCGATCTCCATCGCAGCGGAGGGGAGGGGATCCTCGGAGTCACCTAGTGCAG”, the binding signal is 3320 fluorescence intensity (a.u.).

Consider “AGAAATTCCTGCGTCTGCGTGCTTGTAGATTTGTAATTTGCGGAGTCACCTAGTGCAG”, for which the binding signal was 3280 fluorescence intensity (a.u.). In the case of “TATATCTATATGCCATATCATCTGTCTATCCTTTGTAAAGCGGAGTCACCTAGTGCAG”, the binding signal is 3630 fluorescence intensity (a.u.). Turning to “ACACACCCCACCATAGTTTACGAAGCCGGATCACGTGGAACGGAGTCACCTAGTGCAG”, the binding signal was 3240 fluorescence intensity (a.u.). Turning to “GCCGGCGGCGGTGGCTCCGGGGATGTGATCTGGCAGAGCTCGGAGTCACCTAGTGCAG”, the binding signal is 33100 fluorescence intensity (a.u.). As for “ATCACCGTCACTTTTACTCTGTTAGATACCGTTAATTTTGCGGAGTCACCTAGTGCAG”, the binding signal is 4250 fluorescence intensity (a.u.).

With “GGAGGCTAAGCGGCGGGCCCCACCAGCGCCGCCTGCCTATCGGAGTCACCTAGTGCAG”, the binding signal is 16100 fluorescence intensity (a.u.).

For “AACTTAATTGACGACTCTTCGGGATTAGGATCGTGGACTACGGAGTCACCTAGTGCAG”, the binding signal was 9720 fluorescence intensity (a.u.). As for “GTATGTTGACCCTAGCCACGTGCATTAGTAGCATGAATGTCGGAGTCACCTAGTGCAG”, the binding signal is 3880 fluorescence intensity (a.u.). Turning to “ATTCCATGCATTTGACCTAGTTAGTTCTACACCTTACATCCGGAGTCACCTAGTGCAG”, the binding signal was 4830 fluorescence intensity (a.u.). With “CCTCGCCTCGCCACGCCACGCCACGCCGCCGAAATTTCATCGGAGTCACCTAGTGCAG”, the binding signal was 7280 fluorescence intensity (a.u.). As for “GGCGCGCGCGCACTGGGGCAAGGGCGTGGCGACGGCGGCGCGGAGTCACCTAGTGCAG”, the figure is 3710 fluorescence intensity (a.u.).

“TGGTAGTCATTTGAACGTGTTACATGTGTAGGTTTGGGCGCGGAGTCACCTAGTGCAG”: the binding signal was 3580 fluorescence intensity (a.u.). As to “TTTATTTTGCATTATAAGACTTATATGTGAGTCACACTTACGGAGTCACCTAGTGCAG”, the binding signal was 9210 fluorescence intensity (a.u.). On to “TTTTGAAGATTTAATTGCAATGAATTTAATGGTGTAATCGCGGAGTCACCTAGTGCAG”, for which the binding signal was 19400 fluorescence intensity (a.u.). To “AGTAATTTTCTAGTTTCTCACCATGGTTCACTAGTTCATCCGGAGTCACCTAGTGCAG” belongs 26900 fluorescence intensity (a.u.). Regarding “AATAATAATCTAATGAAGATAAATAATCACAGTATATCATCGGAGTCACCTAGTGCAG”, the binding signal is 26500 fluorescence intensity (a.u.).

Consider “CAAGTCCAAGAGCACCATAAGCTAGTGACACATAGAGCCCCGGAGTCACCTAGTGCAG”, for which the binding signal was 4140 fluorescence intensity (a.u.). As to “GTCTTCTTCCTTCTTTCGTTGGTGCAGTCATTTCAGAGTACGGAGTCACCTAGTGCAG”, the binding signal was 3380 fluorescence intensity (a.u.).

Turning to “CAATTTATGATGGCCCATTAGTCACCCAACTTAGGTACAGCGGAGTCACCTAGTGCAG”, the binding signal is 4290 fluorescence intensity (a.u.).
